# Results are given in words; binding and its absence hold for the method and conditions named. In cells and extracts the contact can be indirect. Here binding means that the protein was enriched with, or labelled near, the bait; the list need not be complete. A no says only that the protein was not detected with the bait.
# By UniProt entry, the sequences of proteins in these tests, tags left out. Where a name states a change or a piece, a line headed by the entry shows the natural chain unless it says otherwise.
# UniProt P35637: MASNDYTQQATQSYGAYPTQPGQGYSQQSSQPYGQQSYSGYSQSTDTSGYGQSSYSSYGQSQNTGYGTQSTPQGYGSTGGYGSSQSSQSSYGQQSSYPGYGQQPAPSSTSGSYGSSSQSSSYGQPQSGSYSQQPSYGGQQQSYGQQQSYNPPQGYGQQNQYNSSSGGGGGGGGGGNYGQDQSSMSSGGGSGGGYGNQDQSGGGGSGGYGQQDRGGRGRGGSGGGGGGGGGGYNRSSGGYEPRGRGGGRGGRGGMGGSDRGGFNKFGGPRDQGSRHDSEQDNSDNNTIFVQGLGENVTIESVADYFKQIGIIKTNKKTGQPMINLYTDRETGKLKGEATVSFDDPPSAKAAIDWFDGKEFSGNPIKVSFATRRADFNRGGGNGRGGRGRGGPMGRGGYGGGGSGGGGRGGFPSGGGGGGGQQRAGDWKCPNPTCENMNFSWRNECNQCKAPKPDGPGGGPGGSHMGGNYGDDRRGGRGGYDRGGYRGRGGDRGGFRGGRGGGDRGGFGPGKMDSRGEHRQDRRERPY
# UniProt P78527: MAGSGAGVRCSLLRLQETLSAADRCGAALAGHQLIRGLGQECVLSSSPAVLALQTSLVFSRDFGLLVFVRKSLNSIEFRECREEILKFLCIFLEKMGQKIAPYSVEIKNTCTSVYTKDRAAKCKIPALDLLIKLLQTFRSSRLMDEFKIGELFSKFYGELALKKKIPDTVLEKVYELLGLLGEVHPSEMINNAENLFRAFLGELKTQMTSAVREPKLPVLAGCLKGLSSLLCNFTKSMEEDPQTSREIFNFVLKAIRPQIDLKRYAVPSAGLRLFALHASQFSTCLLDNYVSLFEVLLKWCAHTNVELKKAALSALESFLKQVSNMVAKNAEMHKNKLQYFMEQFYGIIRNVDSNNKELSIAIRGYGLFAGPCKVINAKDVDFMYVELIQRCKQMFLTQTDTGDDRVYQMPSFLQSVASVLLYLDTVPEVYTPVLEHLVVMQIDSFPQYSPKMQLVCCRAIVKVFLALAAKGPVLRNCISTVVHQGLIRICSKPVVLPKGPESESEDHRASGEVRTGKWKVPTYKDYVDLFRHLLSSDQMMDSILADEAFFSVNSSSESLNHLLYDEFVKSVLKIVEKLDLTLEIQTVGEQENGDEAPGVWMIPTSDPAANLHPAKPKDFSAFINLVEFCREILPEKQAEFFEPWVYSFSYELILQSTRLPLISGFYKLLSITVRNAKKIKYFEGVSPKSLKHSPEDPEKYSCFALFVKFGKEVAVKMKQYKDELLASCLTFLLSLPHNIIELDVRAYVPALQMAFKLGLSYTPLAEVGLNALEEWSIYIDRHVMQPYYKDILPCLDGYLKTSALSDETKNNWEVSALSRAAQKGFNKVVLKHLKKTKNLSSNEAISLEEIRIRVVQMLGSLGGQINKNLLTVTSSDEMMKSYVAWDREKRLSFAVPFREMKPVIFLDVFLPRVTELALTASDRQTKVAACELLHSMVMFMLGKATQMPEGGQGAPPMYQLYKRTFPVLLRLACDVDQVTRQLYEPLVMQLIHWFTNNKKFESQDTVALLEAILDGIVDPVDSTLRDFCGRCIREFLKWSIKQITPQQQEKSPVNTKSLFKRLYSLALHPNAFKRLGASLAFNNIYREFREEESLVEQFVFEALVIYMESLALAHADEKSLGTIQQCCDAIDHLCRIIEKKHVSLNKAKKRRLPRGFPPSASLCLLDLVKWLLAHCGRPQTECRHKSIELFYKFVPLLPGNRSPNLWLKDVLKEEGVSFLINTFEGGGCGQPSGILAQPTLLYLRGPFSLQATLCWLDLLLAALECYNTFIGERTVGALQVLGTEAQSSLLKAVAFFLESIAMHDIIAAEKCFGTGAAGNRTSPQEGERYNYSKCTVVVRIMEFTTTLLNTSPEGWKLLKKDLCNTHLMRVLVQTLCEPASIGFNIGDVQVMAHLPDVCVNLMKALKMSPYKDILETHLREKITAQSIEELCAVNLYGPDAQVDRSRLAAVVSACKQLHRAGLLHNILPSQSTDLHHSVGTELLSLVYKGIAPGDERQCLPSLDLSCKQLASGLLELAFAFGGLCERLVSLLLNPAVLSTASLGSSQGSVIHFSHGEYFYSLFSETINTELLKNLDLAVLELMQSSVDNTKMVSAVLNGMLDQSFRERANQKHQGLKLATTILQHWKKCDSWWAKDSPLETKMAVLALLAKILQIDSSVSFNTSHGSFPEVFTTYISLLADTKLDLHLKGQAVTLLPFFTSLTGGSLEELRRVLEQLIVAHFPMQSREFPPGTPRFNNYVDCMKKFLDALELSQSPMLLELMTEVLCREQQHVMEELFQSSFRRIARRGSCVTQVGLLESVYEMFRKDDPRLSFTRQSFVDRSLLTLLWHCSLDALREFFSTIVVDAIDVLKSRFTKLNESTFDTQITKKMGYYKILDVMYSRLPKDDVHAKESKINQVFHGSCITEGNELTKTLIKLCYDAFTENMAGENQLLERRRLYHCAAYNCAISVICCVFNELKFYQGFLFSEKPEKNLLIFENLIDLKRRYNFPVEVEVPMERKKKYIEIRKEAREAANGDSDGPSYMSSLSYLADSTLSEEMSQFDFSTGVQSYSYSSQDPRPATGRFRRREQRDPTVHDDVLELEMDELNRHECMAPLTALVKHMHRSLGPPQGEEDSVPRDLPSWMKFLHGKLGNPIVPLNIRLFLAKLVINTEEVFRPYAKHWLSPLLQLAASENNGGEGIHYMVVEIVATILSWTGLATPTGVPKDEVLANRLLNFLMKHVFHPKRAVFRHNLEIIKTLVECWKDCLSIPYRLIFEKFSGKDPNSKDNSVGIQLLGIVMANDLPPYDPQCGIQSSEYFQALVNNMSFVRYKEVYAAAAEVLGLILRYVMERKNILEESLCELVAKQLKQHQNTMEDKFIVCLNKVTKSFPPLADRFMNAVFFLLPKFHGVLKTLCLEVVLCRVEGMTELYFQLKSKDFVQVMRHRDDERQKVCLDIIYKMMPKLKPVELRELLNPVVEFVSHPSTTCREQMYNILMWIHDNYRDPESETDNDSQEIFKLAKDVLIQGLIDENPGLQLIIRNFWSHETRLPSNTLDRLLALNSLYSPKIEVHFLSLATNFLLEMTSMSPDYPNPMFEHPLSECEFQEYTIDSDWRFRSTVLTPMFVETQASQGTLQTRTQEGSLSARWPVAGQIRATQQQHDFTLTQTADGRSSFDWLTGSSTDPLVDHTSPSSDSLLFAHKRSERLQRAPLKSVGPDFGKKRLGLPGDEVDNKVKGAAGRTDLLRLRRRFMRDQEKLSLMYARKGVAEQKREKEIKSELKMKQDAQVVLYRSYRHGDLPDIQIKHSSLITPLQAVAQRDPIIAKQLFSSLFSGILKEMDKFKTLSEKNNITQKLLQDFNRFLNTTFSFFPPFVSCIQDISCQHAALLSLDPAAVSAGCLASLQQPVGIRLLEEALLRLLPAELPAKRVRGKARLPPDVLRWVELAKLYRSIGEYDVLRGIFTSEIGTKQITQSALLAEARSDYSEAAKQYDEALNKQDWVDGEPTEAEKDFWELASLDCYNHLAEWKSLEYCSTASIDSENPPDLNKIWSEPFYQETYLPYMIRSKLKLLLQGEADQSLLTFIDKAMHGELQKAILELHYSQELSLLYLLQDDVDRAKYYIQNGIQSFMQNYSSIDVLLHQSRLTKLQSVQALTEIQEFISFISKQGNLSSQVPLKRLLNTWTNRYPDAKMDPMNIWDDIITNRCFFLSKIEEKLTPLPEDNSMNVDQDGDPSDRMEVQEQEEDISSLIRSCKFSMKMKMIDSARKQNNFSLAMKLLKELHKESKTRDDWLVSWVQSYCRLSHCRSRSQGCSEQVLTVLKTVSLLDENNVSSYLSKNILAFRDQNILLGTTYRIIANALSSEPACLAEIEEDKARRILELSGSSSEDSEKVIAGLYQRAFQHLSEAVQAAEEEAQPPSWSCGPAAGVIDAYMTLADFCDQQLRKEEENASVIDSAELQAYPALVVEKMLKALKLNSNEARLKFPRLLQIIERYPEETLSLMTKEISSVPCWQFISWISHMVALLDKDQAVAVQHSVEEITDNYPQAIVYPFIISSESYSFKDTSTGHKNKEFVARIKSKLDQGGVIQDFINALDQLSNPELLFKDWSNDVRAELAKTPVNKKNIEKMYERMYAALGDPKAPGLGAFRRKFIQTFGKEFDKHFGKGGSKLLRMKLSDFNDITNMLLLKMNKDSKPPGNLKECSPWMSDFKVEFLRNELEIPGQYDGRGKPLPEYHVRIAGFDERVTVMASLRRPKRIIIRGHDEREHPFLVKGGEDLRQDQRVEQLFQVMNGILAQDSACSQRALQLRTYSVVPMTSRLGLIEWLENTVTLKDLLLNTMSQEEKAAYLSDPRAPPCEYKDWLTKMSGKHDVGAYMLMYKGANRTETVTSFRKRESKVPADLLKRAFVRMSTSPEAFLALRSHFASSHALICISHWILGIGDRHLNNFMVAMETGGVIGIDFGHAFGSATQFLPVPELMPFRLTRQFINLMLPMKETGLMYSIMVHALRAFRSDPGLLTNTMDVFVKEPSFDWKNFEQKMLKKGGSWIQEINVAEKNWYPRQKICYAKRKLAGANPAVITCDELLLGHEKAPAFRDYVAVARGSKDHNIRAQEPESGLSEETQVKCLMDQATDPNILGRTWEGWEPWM
# UniProt P28340: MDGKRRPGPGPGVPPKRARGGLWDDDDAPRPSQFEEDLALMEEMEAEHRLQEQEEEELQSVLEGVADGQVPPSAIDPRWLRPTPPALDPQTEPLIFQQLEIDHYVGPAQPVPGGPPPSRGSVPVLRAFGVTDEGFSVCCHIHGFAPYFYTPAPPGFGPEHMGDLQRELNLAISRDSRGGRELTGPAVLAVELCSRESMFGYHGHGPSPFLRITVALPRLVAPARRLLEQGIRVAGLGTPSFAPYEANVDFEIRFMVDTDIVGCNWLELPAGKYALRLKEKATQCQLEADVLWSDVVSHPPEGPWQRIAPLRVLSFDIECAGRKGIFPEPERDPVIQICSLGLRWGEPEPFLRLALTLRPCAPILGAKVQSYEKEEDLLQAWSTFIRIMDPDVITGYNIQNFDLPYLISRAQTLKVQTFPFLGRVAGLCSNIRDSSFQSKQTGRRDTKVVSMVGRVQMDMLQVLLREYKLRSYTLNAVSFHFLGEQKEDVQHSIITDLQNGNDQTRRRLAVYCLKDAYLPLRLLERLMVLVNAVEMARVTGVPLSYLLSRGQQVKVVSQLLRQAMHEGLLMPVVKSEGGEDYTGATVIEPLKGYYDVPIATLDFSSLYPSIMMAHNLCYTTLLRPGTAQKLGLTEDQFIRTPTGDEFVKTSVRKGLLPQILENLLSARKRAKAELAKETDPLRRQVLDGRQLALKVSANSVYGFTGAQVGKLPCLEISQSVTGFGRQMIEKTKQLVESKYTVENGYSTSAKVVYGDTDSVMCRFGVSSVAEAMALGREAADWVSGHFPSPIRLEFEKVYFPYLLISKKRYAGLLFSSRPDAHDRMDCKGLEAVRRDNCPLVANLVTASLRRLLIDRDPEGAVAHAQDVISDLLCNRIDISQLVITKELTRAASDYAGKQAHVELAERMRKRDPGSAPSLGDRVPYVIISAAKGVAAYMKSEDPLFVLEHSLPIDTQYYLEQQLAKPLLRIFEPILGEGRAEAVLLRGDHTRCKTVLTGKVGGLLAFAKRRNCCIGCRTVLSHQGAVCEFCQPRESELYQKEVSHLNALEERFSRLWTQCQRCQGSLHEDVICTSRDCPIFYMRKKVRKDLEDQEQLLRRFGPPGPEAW
# UniProt P12956: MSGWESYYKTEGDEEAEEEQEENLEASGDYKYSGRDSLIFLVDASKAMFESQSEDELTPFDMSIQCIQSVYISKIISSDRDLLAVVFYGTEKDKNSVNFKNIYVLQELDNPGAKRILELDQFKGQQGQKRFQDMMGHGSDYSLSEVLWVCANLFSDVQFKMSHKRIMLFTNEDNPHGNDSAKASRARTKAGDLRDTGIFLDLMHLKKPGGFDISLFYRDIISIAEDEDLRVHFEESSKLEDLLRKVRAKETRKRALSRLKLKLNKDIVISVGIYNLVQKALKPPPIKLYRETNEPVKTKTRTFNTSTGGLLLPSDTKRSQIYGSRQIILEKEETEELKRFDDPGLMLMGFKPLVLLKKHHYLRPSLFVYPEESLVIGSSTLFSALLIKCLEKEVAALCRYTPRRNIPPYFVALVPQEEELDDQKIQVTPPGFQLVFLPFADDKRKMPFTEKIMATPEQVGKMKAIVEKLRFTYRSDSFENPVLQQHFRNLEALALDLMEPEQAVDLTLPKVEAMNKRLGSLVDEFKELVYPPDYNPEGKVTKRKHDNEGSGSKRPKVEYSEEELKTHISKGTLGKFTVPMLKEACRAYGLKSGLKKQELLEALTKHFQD
# Biological target: Fused in sarcoma (FUS) (human (endogenous in U-2 OS)) (UniProt P35637)
# Assay: affinity purification with mass spectrometry; rapid IP MS of endogenous proteins: U-2 OS cells fixed with 1% formaldehyde, nuclei digested with benzonase, IP with anti-FUS antibody (Bethyl A300-302A) and protein G Dynabeads, RIPA washes, label-free quantitative MS; FUS-/- cells as negative control
row,Substance,binding
1,DNA-PK (from UniProt P78527 1-4128),binds
2,RIF1 (from UniProt Q5UIP0 1-2472),no binding
3,proliferating cell nuclear antigen (PCNA) (from UniProt P12004 1-261),binds
4,APEX1 (from UniProt P27695 1-318) (other; other documents disagree on this pair),binds
5,DNA polymerase δ (POLδ or POLD1) (from UniProt P28340 1-1107),binds
6,poly(ADP)-ribosyl (PAR) polymerase 1 (PARP1) (from UniProt P09874 1-1014),binds
7,Ku70 (from UniProt P12956 1-609),binds
8,TOP1 (from UniProt P11387 1-765),binds
9,Ku80 (from UniProt P13010 1-732),binds

# — publication PMC8403768
